In paper doi:10.1101/810192:
These are yes or no findings as the source states them, for the method shown. In cells and extracts the contact can be indirect. A yes stands for co-enrichment or nearness to the bait. Other partners may have been found.

Target: T1, Stimulator of interferon genes (STING) (mouse (endogenous in BMDC)) (UniProt Q3TBT3)
T1 sequence: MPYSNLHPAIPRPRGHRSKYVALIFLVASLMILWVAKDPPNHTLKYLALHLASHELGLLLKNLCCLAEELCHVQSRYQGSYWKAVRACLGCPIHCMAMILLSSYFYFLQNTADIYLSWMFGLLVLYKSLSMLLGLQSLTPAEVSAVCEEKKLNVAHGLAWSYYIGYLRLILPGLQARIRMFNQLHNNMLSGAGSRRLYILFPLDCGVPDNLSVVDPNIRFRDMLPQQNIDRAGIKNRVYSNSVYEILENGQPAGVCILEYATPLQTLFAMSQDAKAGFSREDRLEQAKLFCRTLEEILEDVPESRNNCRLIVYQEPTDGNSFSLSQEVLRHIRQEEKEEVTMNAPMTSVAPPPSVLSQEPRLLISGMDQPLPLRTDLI
Experiment: affinity purification with mass spectrometry

- binding: binds
Substance: LYN, a member of Src family kinases (from UniProt P25911-1 1-512)
